23 molecules from PubChem BioAssay AID328 (DTP/NCI, 2004) can be followed below.

Structures are written as SMILES. The list shows only some results of the screen, not a fair sample: it gathers tests that were run many times, whatever their T/C, doses with no T/C, and many T/C values between a quarter and a half above the control. Other doses and runs of a compound stand elsewhere. T/C is the treated group as % of the vehicle group. Some doses have a count of surviving animals in place of a T/C: the source holds a T/C of zero for them, seemingly a mark for toxic or unscored doses. Some survivor counts are full or nearly so, which does not show that the dose was tolerated: the source hardly ever lists a survival T/C far under the control, and the zero likely stands for such cases as well. Counts of survivors are from the toxicity check (mostly the fifth day) where no day follows; animals may have died later. Schedules are NCI's codes, read here as Q, the interval in days (D) or hours (H), X, the number of doses. For survival time, the PubChem record calls one and a half times the control and up active, and a quarter to a half above the control has no call in these data; cut-offs in other NCI protocols can differ. Signs of the kind (2×) count equal records among those shown. Some entries were tested several times; the values are given in rising order. Some T/C values carry the count of animals alive at the toxicity check (mostly the fifth day); where none is given, no animal had died by that day. Starred links: 1 amine or outer side, 2 acyl side, 3 side chain; linkers in the order of their positions; H or OH if unused. Positions of bridges follow the written chain, without caps; N, C: chain ends. Non-standard residues stand in square brackets, D forms with d. Residues, ends and D or L forms follow the SMILES beside them. Chains are numbered I, II in the order given. Actinocin(1to9) = Cc1c2oc3c(C)ccc(C(=O)[*:2])c3nc-2c(C(=O)[*:1])c(N)c1=O; NMeV = CN[CH](C(=O)O)C(C)C; Aze = O=C(O)[CH]1CCN1; Sar = CNCC(=O)O

The assay has as its system BDF1 mice, P388 leukemia ip, median survival T/C. Briefly: NCI In Vivo Anticancer Drug Screen. Data for tumor model P388 Leukemia (intraperitoneal) in B6D2F1 (BDF1) mice. To be noted: T/C endpoint: median survival time, higher T/C = longer survival. Here is the method:
The antitumor activity of compounds was measured in mice bearing transplantable tumors. Survival or tumor size were measured and the results are expressed as the measurement made in the treated group (T) divided by the measurement made in the vehicle treated control group (C). The tumor model used in this assay is P388 Leukemia (intraperitoneal) in B6D2F1 (BDF1) mice

Where [1] appears, read: dose: 200.0 mg/kg/injection, schedule: Q04DX003 (ip), vehicle: saline with Tween-80.
The mark [2] stands for this setting: dose: 200.0 mg/kg/injection, schedule: Q04DX003 (ip), vehicle: saline.
The mark [3] stands for this setting: dose: 100.0 mg/kg/injection, schedule: Q01DX009 (ip), vehicle: saline with Tween-80.
The mark [4] stands for this setting: dose: 100.0 mg/kg/injection, schedule: Q01DX009 (ip), vehicle: saline.
Setting [5] is: dose: 400.0 mg/kg/injection, schedule: Q01DX009 (ip), vehicle: Klucel (hydroxypropylcellulose) (HPC).
Where [6] appears, read: dose: 400.0 mg/kg/injection, schedule: Q04DX003 (ip), vehicle: saline.
The mark [7] stands for this setting: dose: 400.0 mg/kg/injection, schedule: Q01DX009 (ip), vehicle: saline with Tween-80.

`O=S1(=O)CC2(N3CCOCC3)C3CCC(C3)C21` (configuration not stated): the T/C under setting [1] was 129 % of control.

Take `COCc1ccc([N+](=O)[O-])cc1`: the survivor count (dose: 200.0 mg/kg/injection, schedule: Q01DX001 (ip), vehicle: saline with Tween-80) is listed as 6 of 6 and the survivor count (dose: 400.0 mg/kg/injection, schedule: Q01DX001 (ip), vehicle: saline with Tween-80) was 6 of 6.

For the molecule `CCCCNC(C)(C)C(=O)c1cccs1`, under setting [2], the survivor count was 4 of 6.

Regarding `COc1cc2cc[n+](C)c(Cc3ccccc3)c2cc1OC`, the T/C runs as follows: (dose: 25.0 mg/kg/injection, schedule: Q01DX009 (ip), vehicle: saline with Tween-80) 140 % of control (2×); (dose: 35.0 mg/kg/injection, schedule: Q01DX009 (ip), vehicle: Klucel (hydroxypropylcellulose) (HPC)) 141 % of control; (dose: 50.0 mg/kg/injection, schedule: Q01DX009 (ip), vehicle: saline with Tween-80) 135 and 140 % of control. Further, the survivor count runs as follows: (dose: 75.0 mg/kg/injection, schedule: Q01DX009 (ip), vehicle: Klucel (hydroxypropylcellulose) (HPC)) 0 of 6; (dose: 75.0 mg/kg/injection, schedule: Q01DX009 (ip), vehicle: saline with Tween-80) 0 of 6; under setting [3], 0 of 6; under setting [1], 3 of 6.

On to `C=C1C(=O)OC2CC3(C)CC(O)C(OC(C)=O)C(=C)C3CC12` (configuration not stated), for which the T/C under setting [4] is 133 % of control [5 of 6 alive].

Regarding `Cc1ccc(C(SCC(N)C(=O)O)(c2ccc(C)cc2)c2ccc(C)cc2)cc1` (configuration not stated), the T/C (dose: 45.0 mg/kg/injection, schedule: Q04DX003 (ip), vehicle: Klucel (hydroxypropylcellulose) (HPC)) is 136 % of control.

On to `C=C1C(=O)OC2C=C(C)C3C(O)CC(C)(O)C3CC12` (configuration not stated), for which, under setting [5], the survivor count is recorded as 6 of 6.

As to `C(CC1CO1)C1CO1` (configuration not stated), the T/C (dose: 33.0 mg/kg/injection, schedule: Q01DX009 (ip), vehicle: saline) was 146 % of control and the T/C (dose: 44.0 mg/kg/injection, schedule: Q04DX003 (ip), vehicle: saline) is 140 % of control. In addition, the survivor count by setting is: under setting [2], 1 of 6; under setting [6], 0 of 6.

Consider `Cn1c(O)c(C=N)c(=O)[nH]c1=O`, for which the survivor count (dose: 200.0 mg/kg/injection, schedule: Q01DX009 (ip), vehicle: saline) is 6 of 6.

As to `Cc1c2ccccc2c(C)c2c1ccc1ccccc12`, the T/C (dose: 9.0 mg/kg/injection, schedule: Q01DX009 (ip), vehicle: saline with Tween-80) is 145 % of control.

Regarding `Cc1c2oc3c(C)ccc(C(=O)NC4C(=O)NC(C(C)C)C(=O)N5CCCC5C(=O)N(C)CC(=O)N(C)C(C(C)C)C(=O)OC4C)c3nc-2c(C(=O)NC2C(=O)NC(C(C)C)C(=O)N3CCC3C(=O)N(C)CC(=O)N(C)C(C(C)C)C(=O)OC2C)c(N)c1=O` (configuration not stated) (I: TV[Aze][Sar][NMeV] / II: TVP[Sar][NMeV]; ester I:1-I:C, II:1-II:C; linker I:N-II:N via Actinocin(1to9); configuration not given here), the T/C (dose: 75.0 micrograms/kg/injection, schedule: Q04DX003 (ip), vehicle: saline + alcohol) was 132 % of control and the T/C (dose: 1200.0 micrograms/kg/injection, schedule: Q04DX003 (ip), vehicle: saline + alcohol) was 145 % of control.

With `O=C1OC(=Nc2cccc([N+](=O)[O-])c2)c2ccccc21`, the T/C under setting [3] was 144 % of control.

For the molecule `O=C(Cn1cc(F)c(=O)[nH]c1=O)c1ccco1`, the T/C under setting [6] was 133 % of control.

Turning to `CCCCCC#CC(=O)O`, the survivor count under setting [7] is 4 of 6.

Turning to `O=S(=O)(CI)OCCCl`, for the setting “dose: 200.0 mg/kg/injection, schedule: Q01DX005 (ip), vehicle: Klucel (hydroxypropylcellulose) (HPC)”, the survivor count was 0 of 6.

`CC(CCCN(CCCl)CCCl)Nc1ccnc2cc(Cl)ccc12` (configuration not stated): the T/C reads like this: (dose: 0.44 mg/kg/injection, schedule: Q01DX009 (ip), vehicle: saline) 133 % of control; (dose: 1.5 mg/kg/injection, schedule: Q01DX009 (ip), vehicle: saline) 129 % of control. In addition, the survivor count was 5 of 6 (dose: 5.0 mg/kg/injection, schedule: Q04DX003 (ip), vehicle: saline); 3 of 6 (dose: 10.0 mg/kg/injection, schedule: Q04DX003 (ip), vehicle: saline); 0 of 6 (dose: 12.5 mg/kg/injection, schedule: Q01DX009 (ip), vehicle: saline); 1 of 6 (dose: 20.0 mg/kg/injection, schedule: Q04DX003 (ip), vehicle: saline); 0 of 6 (dose: 25.0 mg/kg/injection, schedule: Q01DX009 (ip), vehicle: saline); 0 of 6 (dose: 50.0 mg/kg/injection, schedule: Q01DX009 (ip), vehicle: saline).

Turning to `Cn1cnc([N+](=O)[O-])c1Cl`, the survivor count is, setting by setting: (dose: 200.0 mg/kg/injection, schedule: Q01DX005 (ip), vehicle: saline) 4 of 6; under setting [6], 2 of 6.

For `CN(C)CCOCN1COCC1(C)C`, the T/C under setting [3] was 139 % of control. In addition, the survivor count (dose: 200.0 mg/kg/injection, schedule: Q01DX009 (ip), vehicle: saline with Tween-80) is reported as 4 of 6.

`O=C(OCCC(OC(=O)c1ccccc1)C(COC(=O)c1ccccc1)OC(=O)c1ccccc1)c1ccccc1` (configuration not stated): the survivor count is, setting by setting: (dose: 50.0 mg/kg/injection, schedule: Q01DX009 (ip), vehicle: Klucel (hydroxypropylcellulose) (HPC)) 6 of 6; (dose: 100.0 mg/kg/injection, schedule: Q01DX009 (ip), vehicle: Klucel (hydroxypropylcellulose) (HPC)) 5 of 6; (dose: 200.0 mg/kg/injection, schedule: Q01DX009 (ip), vehicle: Klucel (hydroxypropylcellulose) (HPC)) 6 of 6; under setting [5], 6 of 6.

For `CCCCC1C(=O)OC(C(C)C(O)CCCN=C(N)N)C(C)C=C(C)CCCCC(O)CC(O)CC(O)CC(O)CC(O)C(OC2OC(CO)C(O)C2O)C=C(C)C(O)CCCC(O)CCCC(O)CCC(C)C1O` (configuration not stated), the survivor count reads like this: (dose: 5.0 mg/kg/injection, schedule: Q01DX010 (ip), vehicle: carboxymethylcellulose (CMC)) 2 of 6; (dose: 10.0 mg/kg/injection, schedule: Q01DX010 (ip), vehicle: carboxymethylcellulose (CMC)) 0 of 6; (dose: 20.0 mg/kg/injection, schedule: Q01DX010 (ip), vehicle: carboxymethylcellulose (CMC)) 0 of 6.

For the molecule `CCCCCCCCOP(=O)(N1CC1)N1CC1`, the survivor count under setting [4] is listed as 6 of 6; the survivor count (dose: 100.0 mg/kg/injection, schedule: Q04DX003 (ip), vehicle: saline) is on record as 6 of 6; the survivor count under setting [2] was 3 of 6; the survivor count under setting [6] was 0 of 6.

For the molecule `CC(C)(C)c1ccc(OCc2cnc[nH]2)cc1`, the survivor count (dose: 200.0 mg/kg/injection, schedule: Q01DX001 (ip), vehicle: saline) is given as 1 of 6 and the survivor count (dose: 400.0 mg/kg/injection, schedule: Q01DX001 (ip), vehicle: saline) is 0 of 6.

For the molecule `O=c1cc(O)cc(/C=C/c2ccc(O)cc2)o1`, the T/C under setting [7] was 131 % of control.
